Measurements reported in PubChem BioAssay AID504774 (Drosophila RNAi Screening Center, 2011).

Screen: 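Fly genes whose loss alters survival after alkylation damage to DNA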 (primary screen)
Cell system: Drosophila Kc167 cells
Reagents: long dsRNA against Drosophila genes, about 0.25 µg dsRNA per well
Duration: about 6 days: 3 days knock-down, then 3 days with or without MMS
Challenge: methyl methanesulphonate 0.004% (w/v) for 3 days after knock-down
Detection: 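ATP-dependent luminescence as a measure of live cells in MMS-exposed wells, quantile normalised within each plate, with replicate values also given as a mean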
Direction: mean viability with MMS and viability with MMS: higher = more surviving cells after MMS
In all, the deposit lists about 23,000 reagents; shown is a random part of those with a known target gene and a result. 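Values are quantile-normalised luminescence on an arbitrary scale; higher means more cells surviving MMS.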 A plus sign joins genes that one reagent is predicted to hit.

| Gene | DRSC id | mean viability with MMS | viability with MMS, replicate 1 | viability with MMS, replicate 2 |
| --- | --- | --- | --- | --- |
| Sptz (Spastizin) | DRSC15758 | 3.45e6 | 3.89e6 | 3.95e6 |
| Taf10b (TBP-associated factor 10b) | DRSC00792 | 3.36e6 | 3.75e6 | 3.80e6 |
| CG10038 | DRSC14178 | 3.83e6 | 4.33e6 | 4.36e6 |
| l(2)09851 (lethal (2) 09851) | DRSC04858 | 3.64e6 | 4.12e6 | 4.14e6 |
| CG3223 | DRSC15468 | 3.53e6 | 4.10e6 | 3.92e6 |
| l(3)73Ah + CG32163 | DRSC21888 | 3.62e6 | 4.09e6 | 4.07e6 |
| Brca2 (BRCA2, DNA repair associated) | DRSC04219 | 3.52e6 | 3.99e6 | 3.99e6 |
| Brca2 (BRCA2, DNA repair associated) | DRSC04220 | 3.58e6 | 4.09e6 | 4.03e6 |
| mei-41 (meiotic 41) | DRSC20350 | 3.39e6 | 3.83e6 | 3.81e6 |
| Ten-m (Tenascin major) | DRSC11664 | 3.58e6 | 3.97e6 | 4.13e6 |
| Ten-m (Tenascin major) | DRSC11882 | 3.48e6 | 3.96e6 | 3.90e6 |
| dyl (dusky-like) | DRSC08466 | 3.55e6 | 4.11e6 | 3.95e6 |
| dyl (dusky-like) | DRSC08467 | 3.35e6 | 3.82e6 | 3.81e6 |
| BBS8 (Bardet-Biedl syndrome 8) | DRSC00360 | 3.60e6 | 4.01e6 | 4.17e6 |
| CG10907 | DRSC09804 | 3.76e6 | 4.29e6 | 4.16e6 |
| barr (barren) | DRSC03488 | 3.31e6 | 3.74e6 | 3.74e6 |
| RpL22-like (Ribosomal protein L22-like) | DRSC04582 | 3.61e6 | 4.05e6 | 4.13e6 |
| c12.2 | DRSC18751 | 3.53e6 | 3.98e6 | 4.01e6 |
| Or19b + Or19a | DRSC22604 | 3.59e6 | 4.04e6 | 4.06e6 |
| CG30496 | DRSC06805 | 3.76e6 | 4.40e6 | 4.12e6 |
| CG13436 | DRSC06396 | 3.54e6 | 3.96e6 | 4.06e6 |
| CalpC (Calpain C) | DRSC19873 | 3.40e6 | 3.88e6 | 3.79e6 |
| Ttc7 (Tetratricopeptide repeat domain 7) | DRSC04836 | 3.57e6 | 3.94e6 | 4.03e6 |
| Irbp (Inverted repeat-binding protein) | DRSC17007 | 3.71e6 | 4.14e6 | 4.13e6 |
| Irbp (Inverted repeat-binding protein) | DRSC23317 | 3.93e6 | 4.48e6 | 4.36e6 |
| wda (will decrease acetylation) | DRSC15579 | 3.64e6 | 4.06e6 | 3.96e6 |
| wda (will decrease acetylation) | DRSC22351 | 3.46e6 | 3.89e6 | 3.98e6 |
| Rpn10 (Regulatory particle non-ATPase 10) | DRSC11876 | 3.19e6 | 3.63e6 | 3.62e6 |
| Apt1 (Acyl-protein thioesterase 1) | DRSC10348 | 3.48e6 | 4.05e6 | 3.82e6 |
| pav (pavarotti) | DRSC08730 | 3.43e6 | 3.89e6 | 3.91e6 |
| Cyp311a1 (Cytochrome P450 311a1) | DRSC20239 | 3.58e6 | 3.96e6 | 4.14e6 |
| CG7785 | DRSC16311 | 3.50e6 | 3.90e6 | 4.04e6 |
| CG12069 | DRSC14470 | 3.37e6 | 3.76e6 | 3.80e6 |
| CG30065 | DRSC05420 | 3.66e6 | 4.18e6 | 4.02e6 |
| peng (penguin) | DRSC20583 | 3.56e6 | 4.04e6 | 4.03e6 |
| Coq2 (Coenzyme Q biosynthesis protein 2) | DRSC16516 | 3.61e6 | 4.04e6 | 4.15e6 |
| Coq2 (Coenzyme Q biosynthesis protein 2) | DRSC21366 | 3.78e6 | 4.25e6 | 4.26e6 |
| CG11406 | DRSC04010 | 3.68e6 | 4.06e6 | 4.29e6 |
| CG11406 | DRSC04108 | 3.53e6 | 3.90e6 | 4.10e6 |
| Mrm2 (Mitochondrial rRNA methyltransferase 2) | DRSC14310 | 3.41e6 | 3.83e6 | 3.94e6 |
| CG14840 | DRSC14964 | 3.51e6 | 4.06e6 | 3.90e6 |
| Gr58b (Gustatory receptor 58b) | DRSC04140 | 3.53e6 | 4.03e6 | 3.97e6 |
| drn (doctor no) | DRSC15147 | 3.25e6 | 3.78e6 | 3.74e6 |
| eRF1 (eukaryotic translation release factor 1) | DRSC11779 | 3.37e6 | 3.81e6 | 3.81e6 |
| Raf (Raf oncogene) | DRSC18821 | 3.35e6 | 3.82e6 | 3.77e6 |
| Raf (Raf oncogene) | DRSC23311 | 3.71e6 | 4.11e6 | 4.30e6 |
| sut4 (sugar transporter 4) | DRSC07703 | 3.60e6 | 4.16e6 | 4.00e6 |
| CG4372 | DRSC04466 | 3.62e6 | 4.15e6 | 4.08e6 |
| CG11313 | DRSC14295 | 3.39e6 | 3.75e6 | 3.88e6 |
| egh (egghead) | DRSC18771 | 4.03e6 | 4.82e6 | 4.48e6 |
| CG12869 | DRSC06208 | 3.56e6 | 3.83e6 | 4.11e6 |
| CG11037 | DRSC11631 | 3.63e6 | 4.18e6 | 4.05e6 |
| CG14423 | DRSC17920 | 3.41e6 | 3.92e6 | 3.82e6 |
| CG9467 | DRSC16498 | 3.51e6 | 3.98e6 | 3.97e6 |
| Lcp65APsi (pseudo) | DRSC08795 | 3.47e6 | 4.04e6 | 3.82e6 |
| Lcp65APsi (pseudo) | DRSC10342 | 3.72e6 | 4.22e6 | 4.20e6 |
| CG42662 + CG30080 | DRSC05571 | 3.59e6 | 4.15e6 | 3.94e6 |
| ss (spineless) | DRSC17069 | 3.49e6 | 4.00e6 | 3.93e6 |
| Poxn (Pox neuro) | DRSC05589 | 3.47e6 | 4.04e6 | 3.89e6 |
| Poxn (Pox neuro) | DRSC07512 | 3.57e6 | 4.21e6 | 3.88e6 |
| CG6470 | DRSC19994 | 3.53e6 | 4.04e6 | 3.97e6 |
| Obp19b (Odorant-binding protein 19b) | DRSC20536 | 3.62e6 | 4.08e6 | 4.08e6 |
| Cpr67B (Cuticular protein 67B) | DRSC10373 | 3.54e6 | 4.00e6 | 4.02e6 |
| Erasp (Endoplasmic reticulum stress-associated serine protease) | DRSC07111 | 3.56e6 | 4.06e6 | 4.01e6 |
| MED4 (Mediator complex subunit 4) | DRSC11014 | 3.28e6 | 3.75e6 | 3.76e6 |
| Regnase-1 (Regnase 1) | DRSC14278 | 3.53e6 | 4.00e6 | 4.01e6 |
| achi (achintya) | DRSC07276 | 3.60e6 | 4.13e6 | 4.12e6 |
| CG32808 | DRSC17689 | 3.79e6 | 4.35e6 | 4.09e6 |

3 entries from above, set out differently:
CG7785 [DRSC16311]
- mean viability with MMS: 3.50e6
- viability with MMS, replicate 1: 3.90e6
- viability with MMS, replicate 2: 4.04e6

CG12069 [DRSC14470]
- mean viability with MMS: 3.37e6
- viability with MMS, replicate 1: 3.76e6
- viability with MMS, replicate 2: 3.80e6

CG30065 [DRSC05420]
- mean viability with MMS: 3.66e6
- viability with MMS, replicate 1: 4.18e6
- viability with MMS, replicate 2: 4.02e6
